Here are results for four substances from publication PMC10987537.

Sequences of proteins named here, by UniProt entry; tags and fusion partners are left off. A change or cut given only in a name is not applied to a line headed by its entry.
UniProt Q9UGN5: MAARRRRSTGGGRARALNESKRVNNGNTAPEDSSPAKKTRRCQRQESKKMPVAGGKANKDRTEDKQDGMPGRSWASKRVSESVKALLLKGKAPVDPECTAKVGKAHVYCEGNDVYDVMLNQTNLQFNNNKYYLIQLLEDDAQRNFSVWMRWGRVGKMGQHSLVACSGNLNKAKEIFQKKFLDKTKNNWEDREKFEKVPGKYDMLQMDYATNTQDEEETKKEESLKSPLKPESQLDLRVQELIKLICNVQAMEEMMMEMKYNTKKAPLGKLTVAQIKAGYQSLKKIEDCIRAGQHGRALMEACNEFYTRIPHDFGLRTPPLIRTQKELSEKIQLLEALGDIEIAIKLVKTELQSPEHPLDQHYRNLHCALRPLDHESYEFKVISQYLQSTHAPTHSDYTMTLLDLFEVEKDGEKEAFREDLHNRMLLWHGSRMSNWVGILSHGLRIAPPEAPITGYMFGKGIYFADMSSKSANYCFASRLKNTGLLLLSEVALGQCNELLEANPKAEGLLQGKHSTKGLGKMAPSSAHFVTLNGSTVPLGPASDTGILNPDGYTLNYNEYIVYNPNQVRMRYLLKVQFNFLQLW
UniProt P49005: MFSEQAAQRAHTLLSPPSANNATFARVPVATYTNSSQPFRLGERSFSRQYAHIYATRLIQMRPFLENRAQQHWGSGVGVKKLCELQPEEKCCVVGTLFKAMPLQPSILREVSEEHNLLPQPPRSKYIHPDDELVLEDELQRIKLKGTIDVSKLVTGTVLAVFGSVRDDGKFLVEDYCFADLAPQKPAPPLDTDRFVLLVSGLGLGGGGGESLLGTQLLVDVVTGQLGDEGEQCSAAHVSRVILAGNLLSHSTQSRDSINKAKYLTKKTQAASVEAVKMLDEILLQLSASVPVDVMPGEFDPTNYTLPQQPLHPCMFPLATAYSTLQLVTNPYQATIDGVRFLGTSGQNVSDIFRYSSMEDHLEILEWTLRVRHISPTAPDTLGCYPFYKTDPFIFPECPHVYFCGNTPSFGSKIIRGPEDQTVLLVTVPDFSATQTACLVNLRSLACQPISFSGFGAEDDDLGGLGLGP
UniProt P28340: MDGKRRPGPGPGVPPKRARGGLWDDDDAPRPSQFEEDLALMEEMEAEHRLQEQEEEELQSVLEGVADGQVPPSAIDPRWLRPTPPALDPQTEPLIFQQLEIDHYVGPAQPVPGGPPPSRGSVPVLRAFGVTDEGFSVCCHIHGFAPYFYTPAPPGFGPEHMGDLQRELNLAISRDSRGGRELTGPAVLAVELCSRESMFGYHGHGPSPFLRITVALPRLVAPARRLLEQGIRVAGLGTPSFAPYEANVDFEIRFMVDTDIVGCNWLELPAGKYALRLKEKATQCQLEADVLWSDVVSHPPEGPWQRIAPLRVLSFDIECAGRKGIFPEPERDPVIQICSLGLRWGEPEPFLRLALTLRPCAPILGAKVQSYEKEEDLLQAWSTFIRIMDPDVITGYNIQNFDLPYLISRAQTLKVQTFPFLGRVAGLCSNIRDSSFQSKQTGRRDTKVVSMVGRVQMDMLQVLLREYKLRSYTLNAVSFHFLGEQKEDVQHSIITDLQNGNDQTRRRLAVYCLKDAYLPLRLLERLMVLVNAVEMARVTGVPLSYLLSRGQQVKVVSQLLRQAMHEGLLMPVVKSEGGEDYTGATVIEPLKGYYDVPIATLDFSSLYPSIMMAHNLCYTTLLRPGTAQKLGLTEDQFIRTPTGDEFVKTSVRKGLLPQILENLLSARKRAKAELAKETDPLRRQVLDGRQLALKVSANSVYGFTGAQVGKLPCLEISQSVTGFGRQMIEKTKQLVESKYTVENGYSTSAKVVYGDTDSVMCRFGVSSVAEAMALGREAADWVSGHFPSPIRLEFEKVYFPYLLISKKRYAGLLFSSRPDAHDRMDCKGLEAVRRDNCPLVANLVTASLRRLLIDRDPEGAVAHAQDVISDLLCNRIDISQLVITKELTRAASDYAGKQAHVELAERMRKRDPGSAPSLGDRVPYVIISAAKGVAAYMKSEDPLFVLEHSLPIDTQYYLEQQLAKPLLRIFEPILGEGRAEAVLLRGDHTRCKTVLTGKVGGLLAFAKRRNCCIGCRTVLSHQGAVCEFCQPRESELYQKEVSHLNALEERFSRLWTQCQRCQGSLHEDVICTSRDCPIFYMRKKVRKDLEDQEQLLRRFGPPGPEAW

Results are given in words; binding and its absence hold for the method and conditions named. For some assays here: In cells and extracts the contact can be indirect. Some entries that bind do so weakly or less than the wild type. For some assays here: Where a sequence is shown, tags or fusion partners need not be part of it.

In test [1] the target is T1, POLD3-RFP (POLD3 fused with RFP) (UniProt Q15054).
T1 sequence: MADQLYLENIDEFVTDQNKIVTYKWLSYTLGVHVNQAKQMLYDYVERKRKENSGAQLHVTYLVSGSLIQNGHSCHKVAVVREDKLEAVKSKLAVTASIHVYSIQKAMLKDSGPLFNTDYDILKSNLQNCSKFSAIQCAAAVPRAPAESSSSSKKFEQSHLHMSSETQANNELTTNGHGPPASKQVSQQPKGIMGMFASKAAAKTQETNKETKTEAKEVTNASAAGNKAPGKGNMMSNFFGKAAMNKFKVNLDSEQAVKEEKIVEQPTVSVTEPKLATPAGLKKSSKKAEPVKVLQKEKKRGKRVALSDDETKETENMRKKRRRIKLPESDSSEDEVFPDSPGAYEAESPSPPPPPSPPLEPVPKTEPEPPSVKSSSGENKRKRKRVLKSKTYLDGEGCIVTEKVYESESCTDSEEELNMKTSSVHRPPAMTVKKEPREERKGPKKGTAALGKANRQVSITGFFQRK
The experiment in a line: proximity ligation; DuoLink In Situ Red kit on cells fixed in 2% PFA; mouse anti-FLAG and rabbit anti-RFP antibodies; PARP1/2KO cells complemented with PARP2-FLAG or E558A and transfected with POLD3-RFP; with or without BLM siRNA (50 nM, 48 h).

For test [2], the target named is T1, POLD3-RFP (POLD3 fused with RFP). The experiment in a line: co-IP; POLD3-RFP captured on RFP-Trap-M magnetic beads, 1 h at 4 °C, from RIPA lysate with DNaseI, diluted in 10 mM Tris-HCl pH 7.5, 150 mM NaCl, 0.5 mM EDTA; blot with anti-PARP2.
Test [3] deals with T2, p66 (POLD3) subunit of recombinant human DNA polymerase delta (human) (UniProt Q15054).
T2 sequence: T1 sequence
The experiment in a line: SEC; Pol delta subunits co-expressed in E. coli, co-purified on a Ni-charged HiTrap chelating column (held by p66) and HiTrap heparin, then Superose 6 HR 10/30 in buffer A with 500 mM NaCl.

As to “PARP2 E558A catalytically dead mutant (FLAG-tagged) (from UniProt Q9UGN5 1-583) (enzyme)”, the binding entry in test [1] is “binds”.
“PARP2-FLAG (wild-type PARP2 fused to a 3x Flag tag) (from UniProt Q9UGN5 1-583) (enzyme)”: the binding entry in test [2] and in test [1] was “binds” each time.
Take “p50 (POLD2) subunit of recombinant human DNA polymerase delta (from UniProt P49005 1-469)”: the binding result in test [3] is “binds”.
The same measure, in the same setting: the value for “p125 (POLD1) subunit of recombinant human DNA polymerase delta (from UniProt P28340 1-1107) (enzyme)” was “binds”.
